These are yes or no findings as the source states them, for the method shown. In cells and extracts the contact can be indirect. Here binding means that the protein was enriched with, or labelled near, the bait; the list need not be complete.

The chains behind the UniProt entries cited, without tags or fusion partners.
UniProt B1AWN6, whole entry: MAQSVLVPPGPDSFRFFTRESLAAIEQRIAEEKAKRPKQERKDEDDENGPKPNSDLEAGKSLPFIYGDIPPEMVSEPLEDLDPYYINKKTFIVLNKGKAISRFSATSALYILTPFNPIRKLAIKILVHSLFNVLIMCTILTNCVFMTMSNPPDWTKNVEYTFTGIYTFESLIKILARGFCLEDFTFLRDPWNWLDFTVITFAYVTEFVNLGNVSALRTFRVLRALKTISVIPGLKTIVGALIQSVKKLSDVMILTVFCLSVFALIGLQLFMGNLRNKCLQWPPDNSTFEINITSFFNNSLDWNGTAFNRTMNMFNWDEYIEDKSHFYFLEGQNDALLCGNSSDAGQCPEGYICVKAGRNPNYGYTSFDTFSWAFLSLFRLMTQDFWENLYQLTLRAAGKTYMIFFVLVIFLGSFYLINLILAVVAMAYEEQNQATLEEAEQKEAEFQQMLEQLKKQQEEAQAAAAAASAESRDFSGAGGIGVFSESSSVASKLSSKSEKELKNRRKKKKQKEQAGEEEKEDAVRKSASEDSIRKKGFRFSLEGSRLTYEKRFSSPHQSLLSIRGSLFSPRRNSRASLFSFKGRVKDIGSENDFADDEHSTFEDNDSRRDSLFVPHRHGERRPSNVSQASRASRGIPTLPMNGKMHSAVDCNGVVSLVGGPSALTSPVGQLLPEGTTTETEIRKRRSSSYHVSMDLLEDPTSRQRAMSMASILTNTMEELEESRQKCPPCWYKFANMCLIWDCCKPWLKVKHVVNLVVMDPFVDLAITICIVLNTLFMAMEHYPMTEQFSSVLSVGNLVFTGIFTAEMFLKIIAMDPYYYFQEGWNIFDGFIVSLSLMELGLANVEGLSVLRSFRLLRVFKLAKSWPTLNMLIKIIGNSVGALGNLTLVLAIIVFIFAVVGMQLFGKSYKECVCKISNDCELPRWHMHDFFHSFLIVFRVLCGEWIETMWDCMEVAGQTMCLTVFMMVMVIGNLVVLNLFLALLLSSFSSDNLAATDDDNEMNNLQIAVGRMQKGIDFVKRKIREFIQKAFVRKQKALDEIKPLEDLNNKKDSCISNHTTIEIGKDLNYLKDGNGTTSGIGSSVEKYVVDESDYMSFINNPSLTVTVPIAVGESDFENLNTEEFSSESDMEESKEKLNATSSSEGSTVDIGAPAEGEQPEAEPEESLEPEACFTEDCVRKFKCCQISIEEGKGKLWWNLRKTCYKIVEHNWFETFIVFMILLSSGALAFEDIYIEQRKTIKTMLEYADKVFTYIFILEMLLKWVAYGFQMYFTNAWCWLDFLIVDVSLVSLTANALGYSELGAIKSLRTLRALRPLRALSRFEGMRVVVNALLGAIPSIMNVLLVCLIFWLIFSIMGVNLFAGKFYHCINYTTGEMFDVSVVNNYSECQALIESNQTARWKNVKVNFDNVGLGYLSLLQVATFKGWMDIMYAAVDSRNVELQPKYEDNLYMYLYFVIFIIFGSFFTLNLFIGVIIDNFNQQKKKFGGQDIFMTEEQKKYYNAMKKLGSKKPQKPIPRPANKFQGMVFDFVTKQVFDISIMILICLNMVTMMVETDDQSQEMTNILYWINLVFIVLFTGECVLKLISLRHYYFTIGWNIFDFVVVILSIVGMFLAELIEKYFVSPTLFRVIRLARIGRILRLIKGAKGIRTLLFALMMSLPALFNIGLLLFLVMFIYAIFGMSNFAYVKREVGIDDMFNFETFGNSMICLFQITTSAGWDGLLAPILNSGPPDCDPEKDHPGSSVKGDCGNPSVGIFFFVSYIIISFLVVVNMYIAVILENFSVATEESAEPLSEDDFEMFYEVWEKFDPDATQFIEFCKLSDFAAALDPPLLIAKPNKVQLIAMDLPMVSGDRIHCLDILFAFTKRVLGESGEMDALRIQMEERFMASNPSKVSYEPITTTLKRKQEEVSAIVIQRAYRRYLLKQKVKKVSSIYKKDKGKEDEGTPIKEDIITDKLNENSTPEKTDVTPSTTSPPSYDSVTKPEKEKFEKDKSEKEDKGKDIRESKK

In test [1] the target is Scn2a (mouse, endogenous, untagged) (mouse (endogenous in forebrain)) (UniProt B1AWN6). Description: affinity purification with mass spectrometry.
The target of test [2] is Scn2a (mouse, endogenous, TurboID-HA knock-in) (mouse (endogenous in forebrain)) (UniProt B1AWN6). Description: proximity labelling.

B1: Fgf12 (protein, UniProt P61329 1-243)
chain: MAAAIASSLIRQKRQARESNSDRVSASKRRSSPSKDGRSLCERHVLGVFSKVRFCSGRKRPVRRRPEPQLKGIVTRLFSQQGYFLQMHPDGTIDGTKDENSDYTLFNLIPVGLRVVAIQGVKASLYVAMNGEGYLYSSDVFTPECKFKESVFENYYVIYSSTLYRQQESGRAWFLGLNKEGQIMKGNRVKKTKPSSHFVPKPIEVCMYREPSLHEIGEKQGRSRKSSGTPTMNGGKVVNQDST
As for B1, the binding result in test [1] and in test [2] was “binds” each time.

Source of the values: paper doi:10.1101/2022.10.06.511211.
